These results are taken from US8541598B2, “Biodegradable solvents for the chemical industry” (Dublin City University, priority 2007, dated 2013).

Values joined by “and” are separate entries in the source; they are usually repeats but may differ in a detail not shown here. Identical values can stand only once. Like-named read-outs stand apart in the source and are kept apart here.

One data set concerns activated sludge. As to the kind of experiment: CO2 Headspace test (ISO 14593), ultimate aerobic biodegradability. Particulars: 40 mg L^-1.
The subject of data set [1] is wastewater microorganisms. The settings on record: after 28 days, literature, cited from earlier work.

Turning to `Cn1cc[n+](CC(=O)N2CCCC2)c1` [KG403, 3-methyl-1-(pyrrolidinylcarbonylmethyl)imidazolium octylsulfate, reference compound], the “% Biodegradation” value with activated sludge (test time 0 days) worked out at 0%; with activated sludge (test time 7 days), 27%; in the data set on activated sludge (test time 15 days), 32%; in the data set with activated sludge (test time 21 days), 36%; in the data set with activated sludge (test time 28 days), 36%.

Turning to `CCCCn1cc[n+](C)c1.F[B-](F)(F)F` [BmimBF4], the “biodegradation, Closed Bottle Test” value in data set [1] was “poorly biodegradable”; in data set [1] (listed as bmimBF4), “negligible”.

On to `COCCOC(=O)C[n+]1ccn(C)c1` [KG36, 3-methyl-1-(2-[2-methoxy]ethoxycarbonylmethyl)imidazolium octylsulfate], for which the “% Biodegradation” value with activated sludge (test time 0 days) is on record as 0%; with activated sludge (test time 7 days), 54%; in the data set with activated sludge (test time 15 days) it was 59%; in the data set on activated sludge (test time 21 days), 59%; in the data set with activated sludge (test time 28 days) it was 59%.

On to `CCCOCCOCCOC(=O)C[n+]1ccn(C)c1` [KG42, 3-methyl-1-(2-[2-propoxyethoxy]ethoxycarbonylmethyl)imidazolium octylsulfate], for which the “% Biodegradation” value in the data set with activated sludge (test time 0 days) amounted to 0%; in the data set with activated sludge (test time 7 days), 42%; in the data set on activated sludge (test time 15 days), 62%; in the data set with activated sludge (test time 21 days), 63%.

With `CCCCCCCCCCCCOS(=O)(=O)[O-].[Na+]` [SDS, Sodium n-dodecyl sulfate, reference compound], the “% Biodegradation” value with activated sludge (test time 0 days) is 0%; with activated sludge (test time 7 days, listed as SDS Ref, sulfate), 81%; in the data set on activated sludge (test time 7 days, sulfate), 78% and 74%; with activated sludge (test time 15 days, listed as SDS Ref, sulfate) it was 85%; with activated sludge (test time 15 days, sulfate), 87% and 81%; in the data set on activated sludge (test time 21 days, listed as SDS Ref, sulfate), 90%. In addition, the “% Biodegradation” value was 90% and 86% with activated sludge (test time 21 days, sulfate); 92% in the data set with activated sludge (test time 28 days, listed as SDS Ref, sulfate); 90% and 85% with activated sludge (test time 28 days, sulfate).

Turning to `CCCCOCCOC(=O)C[n+]1ccn(C)c1` [KG39, 3-methyl-1-(2-[2-butoxy]ethoxycarbonylmethyl)imidazolium octylsulfate], the “% Biodegradation” value in the data set on activated sludge (test time 0 days) is recorded as 0%; in the data set on activated sludge (test time 7 days) it was 53%; in the data set on activated sludge (test time 15 days), 59%; in the data set with activated sludge (test time 21 days), 60%.

With `CCCCOC(=O)C[n+]1ccn(C)c1` [KG34, 3-methyl-1-(butoxycarbonylmethyl)imidazolium octylsulfate], the “% Biodegradation” value worked out at 0% in the data set with activated sludge (test time 0 days); 45% in the data set on activated sludge (test time 7 days); 54% with activated sludge (test time 15 days); 56% in the data set with activated sludge (test time 21 days); 59% in the data set with activated sludge (test time 28 days).

Consider `CCCCn1cc[n+](C)c1.F[P-](F)(F)(F)(F)F` [BmimPF6], for which the “biodegradation, Closed Bottle Test” value is “poorly biodegradable” in data set [1] and “negligible” in data set [1] (listed as bmimPF6).

As to `COCCOCCOC(=O)C[n+]1ccn(C)c1` [KG40, 3-methyl-1-(2-[2-methoxyethoxy]ethoxycarbonylmethyl)imidazolium octylsulfate], the “% Biodegradation” value with activated sludge (test time 0 days) was 0%; in the data set on activated sludge (test time 7 days), 32%; in the data set on activated sludge (test time 15 days) it was 56%; with activated sludge (test time 21 days), 58%; with activated sludge (test time 28 days) it was 58%.

`CCOCCOC(=O)C[n+]1ccn(C)c1` [KG37, 3-methyl-1-(2-[2-ethoxy]ethoxycarbonylmethyl)imidazolium octylsulfate]: the “% Biodegradation” value with activated sludge (test time 0 days) is on record as 0%; in the data set on activated sludge (test time 7 days), 54%; in the data set on activated sludge (test time 15 days) it was 57%; in the data set on activated sludge (test time 21 days) it was 59%; in the data set with activated sludge (test time 28 days) it was 57%.

With `CCOCCOCCOC(=O)C[n+]1ccn(C)c1` [KG41, 3-methyl-1-(2-[2-ethoxyethoxy]ethoxycarbonylmethyl)imidazolium octylsulfate], the “% Biodegradation” value is on record as 0% in the data set with activated sludge (test time 0 days); 51% with activated sludge (test time 7 days); 56% with activated sludge (test time 15 days); 56% with activated sludge (test time 21 days); 56% in the data set on activated sludge (test time 28 days).

As to `COCCOCCOC(=O)C[n+]1ccn(C)c1C` [KG45, 2,3-dimethyl-1-(2-[2-methoxyethoxy]ethoxycarbonylmethyl)imidazolium octylsulfate], the “% Biodegradation” value in the data set with activated sludge (test time 0 days) is 0%; in the data set with activated sludge (test time 7 days), 50%; in the data set with activated sludge (test time 15 days), 52%; in the data set with activated sludge (test time 21 days) it was 54%; in the data set with activated sludge (test time 28 days) it was 55%.

Turning to `CCCCOCCOC(=O)C[n+]1ccn(C)c1C` [KG44], the “% Biodegradation” value with activated sludge (test time 0 days) is reported as 0%; in the data set on activated sludge (test time 7 days), 53%; with activated sludge (test time 15 days), 54%; in the data set with activated sludge (test time 21 days), 62%.

As for `CCCCOCCOCCOC(=O)C[n+]1ccn(C)c1` [KG43, 3-methyl-1-(2-[2-butoxyethoxy]ethoxycarbonylmethyl)imidazolium octylsulfate], the “% Biodegradation” value in the data set with activated sludge (test time 0 days) was 0%; with activated sludge (test time 7 days) it was 56%; with activated sludge (test time 15 days) it was 61%; with activated sludge (test time 21 days) it was 64%.

As to `COCCN(CCOC)C(=O)C[n+]1ccn(C)c1` [KG405], the “% Biodegradation” value with activated sludge (test time 0 days) was 0%; in the data set on activated sludge (test time 7 days), 26%; with activated sludge (test time 15 days), 30%; with activated sludge (test time 21 days) it was 29%; with activated sludge (test time 28 days), 29%.

In the case of `CCCOCCOC(=O)C[n+]1ccn(C)c1` [KG38, 3-methyl-1-(2-[2-propoxy]ethoxycarbonylmethyl)imidazolium octylsulfate], the “% Biodegradation” value with activated sludge (test time 0 days) is on record as 0%; in the data set with activated sludge (test time 7 days), 51%; in the data set on activated sludge (test time 15 days), 58%; in the data set on activated sludge (test time 21 days), 61%.

`CCCCCOC(=O)Cn1cc[n+](C)c1.[Br-]` [KG17, 3-Methyl-1-(pentoxycarbonylmethyl) imidazolium bromide]: the “biodegradation, Closed Bottle Test” value in data set [1] is given as 32%.

As for `CCCCCOC(=O)C[n+]1ccn(C)c1` [KG35, 3-methyl-1-(pentoxycarbonylmethyl)imidazolium octylsulfate], the “% Biodegradation” value is 0% with activated sludge (test time 0 days), 52% in the data set with activated sludge (test time 7 days), 59% with activated sludge (test time 15 days) and 60% in the data set on activated sludge (test time 21 days).

In the case of `Cc1n(C)cc[n+]1CC(=O)N1CCCC1` [KG404, 2,3-dimethyl-1-(pyrrolidinylcarbonylmethyl)imidazolium octylsulfate, reference compound], the “% Biodegradation” value is given as 0% in the data set with activated sludge (test time 0 days); 26% in the data set on activated sludge (test time 7 days); 30% in the data set with activated sludge (test time 15 days); 35% with activated sludge (test time 21 days); 35% with activated sludge (test time 28 days).
